According to paper doi:10.1101/2024.12.20.629688:
Results are given in words; binding and its absence hold for the method and conditions named. Some binding calls cover weakened binding; strength is not graded here.

The chains behind the UniProt entries cited, without tags or fusion partners. Where a name states a change or a piece, a line headed by the entry shows the natural chain unless it says otherwise. A line that says so, or that is headed by a name, gives the form on record, which may keep a tag or linker. Residues count along the entry.
UniProt P84077: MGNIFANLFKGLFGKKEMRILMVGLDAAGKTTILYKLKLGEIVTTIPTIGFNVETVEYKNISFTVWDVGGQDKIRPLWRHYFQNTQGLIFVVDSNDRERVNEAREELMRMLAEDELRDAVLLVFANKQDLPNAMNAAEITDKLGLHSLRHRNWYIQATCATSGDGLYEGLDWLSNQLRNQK
MTSL-tagged myrArf1 K38C (Cys159 mutated to Ala) (P84077, form named): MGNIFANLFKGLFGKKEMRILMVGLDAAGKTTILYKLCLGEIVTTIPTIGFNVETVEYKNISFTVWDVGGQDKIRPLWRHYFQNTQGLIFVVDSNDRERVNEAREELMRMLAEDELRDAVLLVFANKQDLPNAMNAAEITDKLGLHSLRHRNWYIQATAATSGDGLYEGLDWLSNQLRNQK
MTSL-tagged myrArf1 K73C (Cys159 mutated to Ala) (P84077, form named): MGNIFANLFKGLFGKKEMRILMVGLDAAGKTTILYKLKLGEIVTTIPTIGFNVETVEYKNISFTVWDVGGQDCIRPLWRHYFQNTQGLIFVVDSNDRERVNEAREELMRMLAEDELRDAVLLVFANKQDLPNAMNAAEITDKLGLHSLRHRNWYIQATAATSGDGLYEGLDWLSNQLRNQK
wt ASAP1 PH domain, [325–451]ASAP1 (Q9QWY8, residues 325-451): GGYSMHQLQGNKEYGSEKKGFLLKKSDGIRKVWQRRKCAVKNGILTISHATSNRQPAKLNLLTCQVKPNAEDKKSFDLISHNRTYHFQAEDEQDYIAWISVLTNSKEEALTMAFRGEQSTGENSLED
ΔN14 ASAP1 PH domain, [339–451]ASAP1 (Q9QWY8, residues 339-451): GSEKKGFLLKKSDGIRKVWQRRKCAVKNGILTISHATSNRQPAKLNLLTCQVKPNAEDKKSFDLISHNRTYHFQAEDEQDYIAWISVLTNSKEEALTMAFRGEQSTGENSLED

Assays:
[1] = target: myristoylated human Arf1, GTP-bound form, anchored on membrane (nanodiscs or LUVs) (human) (UniProt P84077); assay: NMR titration; 1H-13C methyl HMQC of ILV-methyl-labelled, otherwise perdeuterated myrArf1·GTPγS on nanodiscs (PC:PI(4,5)P2 95:5) without and with 2H or 1H PH domain at one ratio (Arf:PH 1:1.2); 25 °C; 20 mM Tris-HCl pH 7.4, 150 mM NaCl, 1 mM MgCl2, 0.5 mM TCEP; both purified
[2] = target: MTSL-tagged myrArf1 K38C (Cys159 mutated to Ala) (human) (UniProt P84077); assay: NMR paramagnetic relaxation enhancement; 60 μM MTSL-labelled protiated myrArf1 variant on nanodiscs, 50 μM methyl-labelled ASAP1 PH; paramagnetic against ascorbate-reduced sample; 25 °C; both purified
[3] = target: MTSL-tagged myrArf1 K73C (Cys159 mutated to Ala) (human) (UniProt P84077); assay: as above
[4] = target: myristoylated human Arf1, GTP-bound form, anchored on membrane (nanodiscs or LUVs) (human) (UniProt P84077); assay: 31P NMR; 1D 31P spectra of GTPγS bound to myrArf1 at the membrane, without and with wt PH; 25 °C; both purified
[5] = target: myristoylated human Arf1, GTP-bound form, anchored on membrane (nanodiscs or LUVs) (human) (UniProt P84077); assay: NMR, 1H-15N TROSY-HSQC line broadening; labelled myrArf1 on nanodiscs containing PI(4,5)P2, alone or with a stoichiometric ratio of wt PH; both purified
[6] = target: myristoylated human Arf1, GTP-bound form, anchored on membrane (nanodiscs or LUVs) (human) (UniProt P84077); assay: NMR titration; 1H-13C methyl HMQC and 1H-15N spectra of isotopically labelled wt PH on nanodiscs without and with nanodisc-associated myrArf1 at one ratio (PH:Arf1 1:1.2); both purified
[7] = target: myristoylated human Arf1, GTP-bound form, anchored on membrane (nanodiscs or LUVs) (human) (UniProt P84077); assay: other fluorescence titration + other: inhibition of the GAP activity of wt PZA; proxies for affinity: (1) rate of mant-GTP dissociation from myrArf1 (Trp to mant FRET) against PH concentration, LUVs with 5 mol% PI(4,5)P2, excess GTP; (2) IC50 of PH domain on GTP hydrolysis in 3 min with myrArf1·GTP below the Km and 1 nM wt PZA; both purified

Measured: binding

wt ASAP1 PH domain, [325–451]ASAP1 (from UniProt Q9QWY8 325-451) (domain or fragment)
binds: all assays above

ΔN14 ASAP1 PH domain, [339–451]ASAP1 (from UniProt Q9QWY8 339-451) (domain or fragment)
binds: [1]
